# From PubChem BioAssay AID2551 (National Center for Advancing Translational Sciences (NCATS), 2010)
# By UniProt entry, the sequences of proteins in these tests, tags left out. Where a name states a change or a piece, a line headed by the entry shows the natural chain unless it says otherwise.
# UniProt P51450: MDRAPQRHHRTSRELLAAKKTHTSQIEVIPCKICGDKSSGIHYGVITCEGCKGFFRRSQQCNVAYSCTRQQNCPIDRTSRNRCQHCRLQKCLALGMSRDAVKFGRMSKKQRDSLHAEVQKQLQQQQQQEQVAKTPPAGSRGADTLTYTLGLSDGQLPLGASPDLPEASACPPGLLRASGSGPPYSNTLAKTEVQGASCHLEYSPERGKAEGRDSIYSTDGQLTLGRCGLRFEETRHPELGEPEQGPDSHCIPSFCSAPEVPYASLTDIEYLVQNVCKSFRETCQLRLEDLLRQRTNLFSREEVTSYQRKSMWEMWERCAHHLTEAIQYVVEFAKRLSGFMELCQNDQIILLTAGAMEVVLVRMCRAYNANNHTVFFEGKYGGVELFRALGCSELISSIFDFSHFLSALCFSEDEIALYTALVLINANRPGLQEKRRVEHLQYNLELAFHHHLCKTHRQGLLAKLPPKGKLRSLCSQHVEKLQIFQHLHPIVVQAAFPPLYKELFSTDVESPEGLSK
# The campaign covered roughly 310,000 compounds. About 17,000 (5.5%) were called active. This list was built around the results that the source calls inconclusive (neither active nor inactive); the mix of calls is not that of the screen. Calls follow the shape of the dose curve; as a rule, active = well fitted inhibition curve with a large enough effect; inconclusive = small, poorly fitted or top-dose-only effect, or effect the other way; inactive = no such curve, though single readings can be large or run the other way. A potency beside an inconclusive call is a rough fit, not a confirmed value.
# Biological target: Nuclear receptor ROR-gamma (Mus musculus) (UniProt P51450)
# Test: qHTS for inhibitors of ROR gamma transcriptional activity; also: nearly all actives have a fitted effect of over 60% in size
# Settings: Drosophila S2 Gal4-RORgamma UAS-luciferase reporter, 20 h; activity change, negative = inhibition: at 53.6 µM (top of the series)
# Procedure, shortened: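 Stable Schneider cell line, Gal4 DNA-binding domain fused to ROR gamma, UAS-luciferase. Cmpd 1 hr RT → CuSO4 700 uM final → 20 hr RT → luciferase reagent 10 min → luminescence.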
# % is scaled to controls: 0 for no effect and ±100 for the full control effect; potency is read from the fitted curve at half-maximal effect.
Compound,"activity change, negative = inhibition",Potency
CC(C)c1ccccc1NC(=O)COC(=O)Cc1cccc(C(F)(F)F)c1,inactive: 2.08% [at 10 µM],–
Cc1ccc(-c2cnc(NC(=O)CCC(=O)N3CCCCC3)n2C)cc1,–,active: 3.55 µM
CC(NC(=O)C(C)N1CCN(Cc2ccccc2)CC1)c1ccc(F)cc1 (stereo unspecified),inactive: 4.53%,–
CC1CCCCN1C(=O)CNCc1ccc(F)cc1 (stereo unspecified),inactive: 15%,–
CSc1nc(-c2ccc(C)cc2)nc(C(Cl)Cl)n1,–,"inconclusive: 2.51 µM [inhibitor, partial curve, poor fit]"
COC(=O)c1cn(NC(=O)C2CCCO2)c(=O)c2ccccc12 (stereo unspecified),–,"inconclusive: 31.6 µM [activator, single point]"
CC(C)(C)CC(=O)NC(=S)N1CCCCCC1,–,active: 7.94 µM
O=C(c1nnsc1S(=O)(=O)c1ccc(Cl)cc1)N1CCOCC1,–,active: 2.82 µM
CCOC(=O)CSc1nc(-c2ccccn2)ncc1OC,–,"inconclusive: 10 µM [inhibitor, single point]"
Cc1sc2ncnc(SCc3ccco3)c2c1C,–,"inconclusive: 35.5 µM [inhibitor, single point]"
COc1ccc2oc(C(=O)NC(C)(C)C)c(C)c2c1,–,"inconclusive: 7.94 µM [activator, partial curve, poor fit]"
O=C(NCCc1cnc[nH]1)Nc1cccc(C(F)(F)F)c1,inactive: -8.47%,–
CCOC(=O)Cc1cc(=O)[nH]c(Nc2nc3ccccc3o2)n1,–,active: 10 µM
CS(=O)(=O)c1ccc(C(=O)Nc2cccc(-c3nc4ccccc4[nH]3)c2)cc1,inactive: 25.4%,–
C/C(=N\NC(N)=S)c1ccc(-n2ccnc2)cc1,–,"inconclusive: 22.4 µM [inhibitor, single point]"
CC(C)Oc1cccc(C(=O)N/N=C/c2coc3ccccc3c2=O)c1,–,"inconclusive: 35.5 µM [inhibitor, single point]"
CCOc1ccc2nc(N3CCC(C(=O)N4CCN(c5ccccn5)CC4)CC3)sc2c1,–,"inconclusive: 8.91 µM [activator, partial curve]"
Cc1ccc(OCCN2CCN(C(=O)CCC(=O)Nc3nnc(C)s3)CC2)cc1,–,"inconclusive: 5.62 µM [activator, single point]"
O=C(NC(=S)NCc1cccnc1)c1cccc2ccccc12,–,"inconclusive: 22.4 µM [inhibitor, single point]"
O=C(c1cc(C2CC2)on1)N1CCCC(N2CCN(c3cccc(C(F)(F)F)c3)CC2)C1 (stereo unspecified),inactive: 0%,–
Cc1nn(Cc2ccc(Cl)cc2)c2sc(C(=O)OCC(N)=O)cc12,–,"inconclusive: 6.31 µM [inhibitor, single point]"

# An excerpt from above in order of molar mass, rising.
Compound,"activity change, negative = inhibition",Potency
CCOC(=O)CSc1nc(-c2ccccn2)ncc1OC,–,"inconclusive: 10 µM [inhibitor, single point]"
O=C(NC(=S)NCc1cccnc1)c1cccc2ccccc12,–,"inconclusive: 22.4 µM [inhibitor, single point]"
CC(C)c1ccccc1NC(=O)COC(=O)Cc1cccc(C(F)(F)F)c1,inactive: 2.08% [at 10 µM],–
